Results from paper PMC9835285.

Amino acid sequences for entries named in this document (tags omitted).
UniProt Q9SVD7: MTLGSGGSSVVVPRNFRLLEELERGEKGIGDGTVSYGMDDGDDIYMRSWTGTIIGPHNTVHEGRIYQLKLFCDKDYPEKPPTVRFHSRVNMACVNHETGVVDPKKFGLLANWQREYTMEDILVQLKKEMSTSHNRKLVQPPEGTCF

What was measured:
Assay in all cases: two-hybrid; yeast PJ69-4A co-transformed with Gal4BD-BnUbc13s (pGBT9E) and Gal4AD-AtUev1D (pGAD424E); growth on SD-Trp-Leu-His plus 3-AT and on SD-Trp-Leu-Ade, 3 days at 30 C
[1] = target: Gal4BD-BnUbc13C (Brassica napus)
[2] = target: Gal4BD-BnUbc13G (Brassica napus)
[3] = target: Gal4BD-BnUbc13A (Brassica napus)

- binding [1]: binds
- binding [2]: binds
- binding [3]: binds
Substance: Gal4AD-AtUev1D (from UniProt Q9SVD7 1-146)

No constants are given. Whether binding was seen depends on the method and setting. Binding calls can cover weak binding; strength is not graded here.
